Assay results published in article PMC4189953.
These are yes or no findings as the source states them, for the method shown. Binding seen in cells or lysates may run through a third protein. Some results given as binding are weak or reduced against the parent protein; the word gives no strength. Blank lines part the entries; values can stand above or below the substance they belong to.

Sequences of proteins named here, by UniProt entry; tags and fusion partners are left off. A change or cut given only in a name is not applied to a line headed by its entry. A line that says so, or that is headed by a name, gives the form on record, which may keep a tag or linker.
UniProt P54105: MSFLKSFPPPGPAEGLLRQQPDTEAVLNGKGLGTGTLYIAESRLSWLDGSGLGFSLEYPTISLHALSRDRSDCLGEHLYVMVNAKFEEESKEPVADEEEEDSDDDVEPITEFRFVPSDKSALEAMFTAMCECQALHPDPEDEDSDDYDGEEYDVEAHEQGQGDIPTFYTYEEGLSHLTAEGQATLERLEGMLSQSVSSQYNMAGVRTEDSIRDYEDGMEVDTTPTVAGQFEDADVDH
4.1R^135, untagged (from 4.1R^135-IRES-GFP) (P11171-2, form named): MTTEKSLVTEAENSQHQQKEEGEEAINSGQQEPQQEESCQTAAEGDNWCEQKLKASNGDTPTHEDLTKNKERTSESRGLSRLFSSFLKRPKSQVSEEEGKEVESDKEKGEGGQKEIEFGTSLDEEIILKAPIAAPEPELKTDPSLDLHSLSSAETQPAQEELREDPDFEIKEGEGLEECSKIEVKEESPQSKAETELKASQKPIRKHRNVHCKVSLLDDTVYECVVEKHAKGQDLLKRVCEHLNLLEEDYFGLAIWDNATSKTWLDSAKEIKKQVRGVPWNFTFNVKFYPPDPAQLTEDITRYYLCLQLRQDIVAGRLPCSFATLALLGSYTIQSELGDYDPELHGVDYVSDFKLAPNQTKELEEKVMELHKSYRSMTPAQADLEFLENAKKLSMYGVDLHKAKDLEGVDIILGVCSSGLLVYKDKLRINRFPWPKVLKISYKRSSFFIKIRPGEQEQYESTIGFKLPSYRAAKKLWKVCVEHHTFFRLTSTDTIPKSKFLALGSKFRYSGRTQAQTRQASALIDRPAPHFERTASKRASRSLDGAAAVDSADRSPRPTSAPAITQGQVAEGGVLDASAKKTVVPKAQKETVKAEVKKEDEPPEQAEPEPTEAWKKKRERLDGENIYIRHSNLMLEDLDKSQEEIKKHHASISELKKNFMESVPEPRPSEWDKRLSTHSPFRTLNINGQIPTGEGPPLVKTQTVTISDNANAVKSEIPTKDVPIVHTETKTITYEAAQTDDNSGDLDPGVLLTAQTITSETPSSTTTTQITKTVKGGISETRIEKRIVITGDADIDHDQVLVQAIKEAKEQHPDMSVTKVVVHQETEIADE

Assays:
[1] = biological target: C-terminally flagged ICln (FLAG-ICln) (human) (UniProt P54105); assay: co-IP; HEK cells transfected with pFLAG-ICln or pFLAG-BAP (control), alone or with Y-4.1R chimeras; lysis in 25 mM Tris pH 8, 150 mM NaCl, 10% glycerol, 0.5% Triton X-100; 2 mg supernatant on anti-FLAG M2 affinity gel; elution with FLAG peptide; Western blot
[2] = biological target: YFP-tagged 4.1R^135 (Y-4.1R^135) (human) (UniProt P11171); assay: FRET or BRET; acceptor photobleaching FRET (FRETeff), HEK cells fixed in 4% PFA, kept in PBS; C-ßactin donor, YFP acceptor; with IRES-DsRED or ICln-IRES-DsRED; ROIs of the thin cytoplasmic layer underlying the plasma membrane
[3] = biological target: 4.1R^135, untagged (from 4.1R^135-IRES-GFP) (human) (UniProt P11171); assay: co-IP; HEK cells transfected with 4.1R-IRES-EGFP vectors, alone or with C-ICln or CFP; lysis in CHAPS binding buffer (25 mM HEPES, 150 mM NaCl, 1 mM MgCl2, 0.5% CHAPS); 2 mg supernatant overnight at 4°C with agarose-bound goat anti-actin (I-19) or goat IgG agarose (control); Western blot with anti-4.1R and anti-actin

binding [1]: binds
Substance: YFP-tagged 4.1R^135 (Y-4.1R^135) (from UniProt P11171-2 1-831)

binding [2]: binds
Substance: ICln, untagged (from ICln-IRES-dsRED) (from UniProt P54105 1-237)

binding [3]: binds
Substance: CFP-tagged ICln (C-ICln) (from UniProt P54105 1-237)
